Results are given in words; binding and its absence hold for the method and conditions named. Binding calls can cover weak binding; strength is not graded here.
B1: MAdCAM antibody Clone ID 39 of Table 6 (scFv) (scFv)
scFv: QVQLVQSGAEVKKPGASVKVSCKASGYTFTSYYMHWVRQAPGQGLEWMGWMNPNSGNTGYAQKFQGRVTMTRDTSTSTVYMELSSLRSEDTAVYYCARDLGYYDSSGYFGAFDIWGQGTTVTVSSGGGGSGGGGSGGGGSGGGGSDIQMTQSPSSLSASVGDRVTITCQSSEDISSSLNWYQQKPGKAPKLLIYAASSLQIGVPSRFSGSGSGTDFTLTISSLQPEDFATYYCQQTYSTPYTFGQGTKVEIK
B2: MAdCAM antibody Clone ID 40 of Table 6 (scFv) (scFv)
scFv: QVQLVQSGAEVKKPGASVKVSCKASGYTFTSYGISWVRQAPGQGLEWMGIINPRGGSTIFAQKFQGRVTMTRDTSTSTVYMELSSLRSEDTAVYYCARGTRSSGWYGWFDPWGQGTLVTVSSGGGGSGGGGSGGGGSGGGGSDIQMTQSPSSLSASVGDRVTITCRASQGIGNWLAWYQQKPGKAPKLLIYAASNLETGVPSRFSGSGSGTDFTLTISSLQPEDFATYYCQQIHSYPLTFGGGTKVEIK
B3: MAdCAM antibody Clone ID 42 of Table 6 (scFv) (scFv)
scFv: QVQLVQSGAEVKKPGSSVKVSCKASGGTLSRYGVSWVRQAPGQGLEWMGGIIPIFGTTNYAQKFQGRVTITADESTSTAYMELSSLRSEDTAVYYCARDRVYYDSSGYPTWYFDLWGRGTLVTVSSGGGGSGGGGSGGGGSGGGGSEIVMTQSPATLSVSPGERATLSCRASQSVSSSYLAWYQQKPGQAPRLLIYGASTRATGIPARFSGSGSGTEFTLTISSLQSEDFAVYYCQQYGSSPITFGQGTKVEIK
B4: MAdCAM antibody Clone ID 43 of Table 6 (scFv) (scFv)
scFv: EVQLLESGGGLVQPGGSLRLSCAASGFTFDDFAMHWVRQAPGKGLEWVSGISGNGDSRYYADSVKGRFTISRDNSKNTLYLQMNSLRAEDTAVYYCARDASYGGNYGMDVWGQGTTVTVSSGGGGSGGGGSGGGGSGGGGSDIQMTQSPSSLSASVGDRVTITCQASQDIRNYLNWYQQKPGKAPKLLIYKASTLESGVPSRFSGSGSGTDFTLTISSLQPEDFATYYCQQANSFPLTFGPGTKVDIK
B5: MAdCAM antibody Clone ID 44 of Table 6 (scFv) (scFv)
scFv: EVQLVESGGGLVKPGGSLRLSCAASGFTFSSYWMSWVRQAPGKGLEWVSAIGTGGGTYYAAPVKGRFTISRDDSKNTLYLQMNSLKTEDTAVYYCAREWLVPYYGMDVWGQGTTVTVSSGGGGSGGGGSGGGGSGGGGSDIQMTQSPSSLSASVGDRVTITCRASQSISRWLAWYQQKPGKAPKLLIYGASNLQSGVPSRFSGSGSGTDFTLTISSLQPEDFATYYCQQSYSTPWTFGQGTKVEIK
B6: MAdCAM antibody Clone ID 48 of Table 6 (scFv) (scFv)
scFv: EVQLLESGGGLVQPGGSLRLSCAASGFTFSDHGMHWVRQAPGKGLEWVSVIYGGESTYYADSVKGRFTISRDNSKNTLYLQMNSLRAEDTAVYYCARDPAVAGGGIFDYWGQGTLVTVSSGGGGSGGGGSGGGGSGGGGSDIQMTQSPSSLSASVGDRVTITCRASQGISNYLAWYQQKPGKAPKLLIYDASNLETGVPSRFSGSGSGTDFTLTISSLQPEDFATYYCQQSYSTCYTFGQGTKLEIK
B7: MAdCAM antibody Clone ID 49 of Table 6 (scFv) (scFv)
scFv: QVQLVQSGAEVKKPGASVKVSCKASGDTFTGYYIHWVRQAPGQGLEWMGWINPNSGGTNYAQKFQGRVTMTRDTSTSTVYMELSSLRSEDTAVYYCARSGLWLGSYYGMDVWGQGTLVTVSSGGGGSGGGGSGGGGSGGGGSDIQMTQSPSSLSASVGDRVTITCRASQTISIWLAWYQQKPGKAPKLLIYDASTLQSGVPSRFSGSGSGTDFTLTISSLQPEDFATYYCQQYSSYPLTFGQGTKVEIK
B8: MAdCAM antibody Clone ID 50 of Table 6 (scFv) (scFv)
scFv: QVQLVQSGAEVKKPGASVKVSCKASGYTFTSYDINWVRQAPGQGLEWMGWINPNSGTTGYAQKFQGRVTMTRDTSTSTVYMELSSLRSEDTAVYYCARSPYYYYGMDVWGQGTTVTVSSGGGGSGGGGSGGGGSGGGGSDIQMTQSPSSLSASVGDRVTITCRASHFISRWVAWYQQKPGKAPKLLIYAASTLQSGVPSRFSGSGSGTDFTLTISSLQPEDFATYYCQQSYSGISFGPGTKVDIK

target: Cyno MAdCAM protein (cyno); experiment: ELISA

binding, binds:
B1
B2
B3
B4
B5
B6
B7
B8
